Measurements from publication PMC5533930.
Results are given in words; binding and its absence hold for the method and conditions named. In cells and extracts the contact can be indirect. Some binding calls cover weakened binding; strength is not graded here.

Protein sequences, listed by entry. Tags and fused reporters are not part of them. Residues count along the entry.
UniProt Q99IB8, residues 1977-2442: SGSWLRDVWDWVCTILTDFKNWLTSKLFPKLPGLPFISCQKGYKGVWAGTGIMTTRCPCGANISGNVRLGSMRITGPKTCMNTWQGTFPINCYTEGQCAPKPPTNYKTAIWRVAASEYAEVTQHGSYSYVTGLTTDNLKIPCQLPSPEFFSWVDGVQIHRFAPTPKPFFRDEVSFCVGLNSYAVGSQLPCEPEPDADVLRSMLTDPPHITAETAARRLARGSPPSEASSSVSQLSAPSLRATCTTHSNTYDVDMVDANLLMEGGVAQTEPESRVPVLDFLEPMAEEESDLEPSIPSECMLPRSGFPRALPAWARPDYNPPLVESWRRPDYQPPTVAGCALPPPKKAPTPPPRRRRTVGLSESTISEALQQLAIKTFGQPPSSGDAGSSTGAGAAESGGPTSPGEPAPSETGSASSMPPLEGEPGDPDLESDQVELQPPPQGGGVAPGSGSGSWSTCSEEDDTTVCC

Legend:
[1] = target: hCKα-Flag (hCKα tagged with a Flag epitope at its C terminus) (human) (UniProt P35790); assay: co-IP; lysates of transfected T7/Huh7 (or T7-control shRNA/Huh7) cells in Tris-HCl pH 7.4, 150 mM NaCl, 1% CHAPS; 1 μg antibody on protein A Mag Sepharose beads, lysate 4°C 6 h, 5 washes in PBS, immunoblot; cells treated with vehicle, PAO (5 μM), CK37 (100 μM) or PI4KIIIα siRNA in some panels
[2] = target: human choline kinase-α (hCKα), endogenous (human (endogenous in Huh7)) (UniProt P35790); assay: as above
[3] = target: D288A mutant hCKα-R (human) (UniProt P35790); assay: as above
wild-type hCKα-R (human) = wild-type hCKα-R (human) (UniProt P35790); assay: as above
[4] = target: HA-PI4KIIIα (phosphatidylinositol-4-kinase IIIα with an HA tag at its N terminus) (UniProt P42356); assay: as above
[5] = target: HCV nonstructural protein 5A (NS5A) expressed from pTM-NS5A (hepatitis C virus (strain not stated)) (UniProt Q99IB8); assay: as above
[6] = target: phosphatidylinositol-4-kinase IIIα (PI4KIIIα), endogenous (human (endogenous in Huh7)) (UniProt P42356); assay: co-IP; lysates of HCVcc-infected Huh7 cells; rabbit anti-PI4KIIIα or mouse anti-NS5A against isotype control IgG; immunoblot

| Substance | binding [1] | binding [2] | binding [4] | other results |
| --- | --- | --- | --- | --- |
| HA-PI4KIIIα (phosphatidylinositol-4-kinase IIIα with an HA tag at its N terminus) (from UniProt P42356 1-2102) (enzyme) | binds | binds | – | binding [3]: binds; binding (wild-type hCKα-R (human)): binds |
| HCV nonstructural protein 5A (NS5A) expressed from pTM-NS3–5B (from UniProt Q99IB8 1977-2442) | binds | binds | – | – |
| HCV nonstructural protein 5A (NS5A) expressed from pTM-NS5A (from UniProt Q99IB8 1977-2442) | binds | – | – | – |
| hCKα-Flag (hCKα tagged with a Flag epitope at its C terminus) (from UniProt P35790-2 1-439) (enzyme) | – | – | binds | binding [5]: binds |
| human choline kinase-α (hCKα), endogenous (from UniProt P35790 1-457) (enzyme) | – | – | binds | binding [6]: binds |
